# Test results from PubChem BioAssay AID1347076 (National Center for Advancing Translational Sciences (NCATS), 2019).
# Hit rate of the full screen: of about 400,000 compounds, about 13,000 (3.2%) were called active. Inconclusive means that the source gave no clear call. Such entries were picked first, then a sample of the others. The call rests on the fitted dose curve; in most records, active means well fitted cell-killing curve with a large enough effect; inconclusive means small, poorly fitted or top-dose-only effect, or effect the other way; inactive means flat fitted curve, though single readings scatter. Where the call is inconclusive, the potency comes from a doubtful curve fit.
# Assay: qHTS assay for MDR1-selective chemotherapeutics: Primary screen using the drug-selected MDR subline cells KB-V1; further: nearly all actives have a fitted effect of over 60% in size
# Settings: KB-V1 MDR cells viability, CellTiter-Glo, 72 h; activity change, negative = cytotoxicity: at 46.1 µM (top of the series)
# Outline: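 Cytotoxicity toward P-gp-expressing KB-V1 cells was determined as loss of CellTiter-Glo luminescence after 72 h at 37 degrees C. Compounds were tested in quantitative HTS format across a concentration range, with curves fitted to normalized data.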
# On the % scale 0 is the no-effect control and ±100 the full control effect; potency means the concentration at half of the fitted maximal effect.
Structure (SMILES),Potency,"activity change, negative = cytotoxicity"
CC(Oc1cccc(Cl)c1)C(=O)Nc1cc(=O)n(C)c(=O)n1C (stereo not given),"inconclusive: 8.2 µM [cytotoxic, partial curve]",
COc1ccccc1NC(=S)N/N=C/c1cccc(C)c1,"inconclusive: 29.1 µM [cytotoxic, single point]",
COc1ccc(S(=O)(=O)NCC(c2cccnc2)N2CCN(Cc3ccccc3)CC2)cc1 (stereo not given),,inactive: 1.54%
NCCCNC(=O)c1ccc(/C=N/O)nc1,,inactive: -0.785%
CCCn1nnc(NC(=O)c2cccc(OCC)c2)n1,"inconclusive: 20.6 µM [cytotoxic, single point]",
COc1ccc(CCNC(=O)[C@@H](NC(=O)c2ccccc2F)C(C)C)cc1OC,"inconclusive: 9.2 µM [cytotoxic, partial curve, poor fit]",
CCOc1ccc2nc(NCCNC(=O)CC)c(C#N)cc2c1,"inconclusive: 18.4 µM [cytotoxic, partial curve]",
CSCCC(NC(=O)c1ccccc1)C(=O)NCc1ccco1 (stereo not given),"inconclusive: 20.6 µM [cytotoxic, single point]",
Cc1cc(OCC(=O)OCC(=O)N2CCCCC2)ccc1Cl,,inactive: 17.2%
O=C(O)c1cccc2c1-c1c(cccc1[N+](=O)[O-])C2,"inconclusive: 0.461 µM [rising, full curve, poor fit]",
Cc1ccc(CN2CCCn3nc(C(=O)NCc4ccccc4Cl)cc3C2=O)cc1,"inconclusive: 29.1 µM [cytotoxic, single point]",
CC(C)Cn1c(N)c(C(=O)CSc2ncn[nH]2)c(=O)n(C)c1=O,,inactive: 11%
COc1ccc(C(=O)C[C@@H]2OC[C@H](C(C)C)N2S(=O)(=O)c2ccc(C)cc2)cc1OC,active: 20.6 µM,
Cc1c(NC(=O)c2ccc3c4c(cccc24)CC3)c(=O)n(-c2ccccc2)n1C,"inconclusive: 20.6 µM [cytotoxic, single point]",
COc1ccc(Cl)cc1NC(=O)CN(C)C(=O)c1cc2ccccc2cc1OC,"inconclusive: 18.4 µM [cytotoxic, single point]",
Cc1cc(NC(=O)CSc2nc(-c3ccco3)cc(C(F)(F)F)n2)no1,"inconclusive: 0.184 µM [cytotoxic, full curve, poor fit]",
CCN(CC)C(=O)CP(=O)(c1ccccc1)c1ccccc1,"inconclusive: 5.8 µM [rising, partial curve]",
COc1ccccc1C(=O)c1c(N)c(-c2nc(-c3ccccc3)cs2)c2ccccn12,"inconclusive: 23.1 µM [cytotoxic, single point]",
COc1ccc(S(=O)(=O)NCc2ccccn2)cc1NC(=O)c1ccccc1F,active: 1.84 µM,
CSc1cccc(NC(=O)N2CCCC(CNS(=O)(=O)Cc3ccccc3)C2)c1 (stereo not given),"inconclusive: 23.1 µM [cytotoxic, partial curve, poor fit]",
O=C(CC(c1ccco1)C1CCCCC1=O)c1ccco1 (stereo not given),,inactive: 11%
COc1ccc(OCCOc2ccc(S(=O)(=O)N3CCCC3)cc2[N+](=O)[O-])cc1,active: 14.6 µM,
Cc1ccc(NC(=O)CCC(=O)Nc2nnc(C3CCCCC3)s2)cc1,"inconclusive: 0.0073 µM [rising, full curve, poor fit]",

# Full records, looked up by structure.
# `Cc1cc(OCC(=O)OCC(=O)N2CCCCC2)ccc1Cl` in the list: activity change, negative = cytotoxicity: inactive: 17.2%
# `O=C(O)c1cccc2c1-c1c(cccc1[N+](=O)[O-])C2` in the list: Potency: inconclusive: 0.461 µM [rising, full curve, poor fit]
# `CC(C)Cn1c(N)c(C(=O)CSc2ncn[nH]2)c(=O)n(C)c1=O` in the list: activity change, negative = cytotoxicity: inactive: 11%
# `COc1ccc(C(=O)C[C@@H]2OC[C@H](C(C)C)N2S(=O)(=O)c2ccc(C)cc2)cc1OC` in the list: Potency: active: 20.6 µM

# Next part

Structure (SMILES),Potency,"activity change, negative = cytotoxicity"
COc1ccccc1-c1noc(-c2ccc(N(C)Cc3ccccc3)c([N+](=O)[O-])c2)n1,,inactive: -14.1%
CCCn1c(SC(C(=O)Nc2cc(C)ccc2OC)c2ccccc2)nc2ccccc2c1=O (stereo not given),"inconclusive: 16.4 µM [cytotoxic, single point]",
O=C(NCCc1ccccc1)c1ccccc1NS(=O)(=O)N1CCCC1,,inactive: 1.13%
Cc1cc(/C=C2\SC(=S)NC2=O)cc(C)c1O,"inconclusive: 18.4 µM [cytotoxic, single point]",
CCOc1ccccc1C(=O)Nc1ccc2nc(N3CCN(c4ncccn4)CC3)cc(C)c2c1,active: 8.2 µM,
O=C(NC1CCCc2ccccc21)C1CCN(c2nnc(-n3cccc3)s2)CC1 (stereo not given),"inconclusive: 14.6 µM [cytotoxic, partial curve, poor fit]",
c1ccc(C2=Nn3c(nnc3-c3ccco3)SC2)cc1,"inconclusive: 29.1 µM [cytotoxic, single point]",
Cc1ccc(-c2cnn(-c3cccc(C(F)(F)F)c3)c2N)cc1,active: 16.4 µM,
C=C(C)CN(CC)CCC(=O)Nc1ccc(OC)cc1OC,"inconclusive: 6.51 µM [cytotoxic, full curve]",
COc1ccccc1Cc1c(-c2cccc(Br)c2)nc2c(C)cc(Br)cn12,"inconclusive: 25.9 µM [cytotoxic, partial curve, poor fit]",
Cc1cccc(Cc2ccc(Cl)nn2)c1,"inconclusive: 29.1 µM [rising, single point]",
CCN(C(=O)CSc1nc2cc(C(=O)OC)ccc2c(=O)n1Cc1ccco1)c1cccc(C)c1,"inconclusive: 10 µM [cytotoxic, partial curve]",
CC(C)(C)NC(=S)NC1CC1,,inactive: 18.9%
Cc1cc(Nc2n[nH]c(N)c2C#N)ccc1F,,inactive: -4.54%
COc1cc(C=CC(=O)c2cc(OC)c(OC)c(OC)c2)cc(OC)c1OC,"inconclusive: 7.31 µM [cytotoxic, partial curve, poor fit]",
COc1cnc(SCCC(F)=C(F)F)[nH]c1=O,"inconclusive: 18.4 µM [rising, single point]",
CCOc1cc(/C=N\NC(=O)c2ccc(NC(=O)C(C)(C)C)cc2)ccc1OC(=O)c1cccc(C)c1,"inconclusive: 16.4 µM [cytotoxic, single point]",
CC1Cc2ccccc2N1C(=O)CSc1nc2ccccc2o1 (stereo not given),active: 14.6 µM,
Cc1cc(C)cc(C(=O)N2CCC(CCC(=O)NC3CC3)CC2)c1,,inactive: -17.2%
COc1ccc(/C=C/C(=O)c2cc(Br)ccc(=O)c2O)cc1,active: 14.6 µM,
Cc1ccnc(N2C(=O)c3ccccc3C2=O)c1,"inconclusive: 4.61 µM [rising, full curve]",
CCOC(=O)[C@]12CCC=C1N(Cc1ccc(Cl)cc1Cl)C(=O)[C@H](CC(=O)N1CCCC1)C2,"inconclusive: 20.6 µM [cytotoxic, single point]",
